# Data taken from PubChem BioAssay AID1347426 (Functional Genomics Laboratory (NCATS/FGL), 2020).
# Hit rate of the full screen: of about 31,000 sequences, about 1,400 (4.5%) were called active.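 Rule for the calls: active = median seed-adjusted z-score above 1 or below -1; inactive = the rest.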 The list shows a part of the results.
# Experiment: Novel Modifiers of Survival Motor Neuron (SMN) Protein: Gene Identification via Genome-wide siRNA Screen;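 note: luminescence tracks full-length SMN protein made from the SMN2 reporter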
# Settings: HEK293T SMN2-luciferase reporter, siRNA knockdown, 72 h; actives lie on both sides
# Method in brief: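 HEK293T cells stably carrying an SMN2 promoter/splicing cassette–luciferase reporter were reverse-transfected with 1 pmol siRNA per well (druggable-genome library, 3 siRNAs per gene) and grown 72 h at 37 °C. Luminescence, normalized to negative-control siRNA and log10-transformed, was scored as MAD.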
row,Sequence,median seed-adjusted z-score
1,GAGACAAACUAAUUGAGAATT against PPP1R8,inactive: -0.029
2,GGACGAGAGCUUGAACAGATT against BMPR1B,inactive: 0.5
3,GGAUGGUGUGGUGACCAUUTT against KCNIP2,inactive: 0.415
4,CGGCAUCCGAGUACAUCUATT against THAP7,inactive: -0.0317
5,UCGCUUAUCUCACCCUAUATT against IPO13,inactive: 0.612
6,CCACCAUCCUACAAGCCUUTT against CYP2S1,inactive: -0.196
7,GAGCGUACCAAGGAUCUAATT against HDLBP,active: -1.18
8,CACCAAAUAUAAUAGCCGATT against ARFGAP2,inactive: 0.0672
9,CAUUGCAUAUUGCAGCGUATT against TNNI3K,inactive: -0.178
10,GGACAACAACUGAAAUGUATT against ZIM3,inactive: -0.02
11,CAACCAGACAUAUAGAUCATT against SETDB1,inactive: 0.0517
12,GGAAGAUUGCUCAGAAUGATT against ACSS2,inactive: 0
13,CAGAAAUCAGGAAACAUAATT against ZNF786,inactive: -0.518
14,GGAUCUUUUUAAACCUAUUTT against PIK3C2A,inactive: 0.0177
15,CCUCCUCUCAGUCUACUCATT against CLTB,inactive: 0.319
16,GGAUAUGCUUGUACUAGUATT against DDX3Y,inactive: -0.149
17,ACAUUGUGGAGGGAAUUUATT against GUCA1B,inactive: 0
18,CCAUAGACAAUACUACCAATT against GPR112,inactive: 0
19,GCACUGAUGACAACAACUATT against HTR1F,inactive: -0.127
20,CAGUGGUCCAAGUACAAAUTT against PPIH,inactive: -0.174
21,GCAGUAUGCAGAUUGUUCATT against FGL1,inactive: -0.259
22,GGAUGACAGUCCAUACUGUTT against FHL5,inactive: 0.0859
23,GCAGCAAAGAUCUACCGAATT against CS,inactive: -0.419

# Fetched one by one from the list above (3):
row,Sequence,median seed-adjusted z-score
1,GAGACAAACUAAUUGAGAATT against PPP1R8,inactive: -0.029
8,CACCAAAUAUAAUAGCCGATT against ARFGAP2,inactive: 0.0672
23,GCAGCAAAGAUCUACCGAATT against CS,inactive: -0.419

# Continuation.

row,Sequence,median seed-adjusted z-score
1,GACUCUUUUCUACCUCGAATT against MYO1A,inactive: -0.0501
2,GGCCUACAGCUGGAAGGAATT against CHRM1,active: 1.1
3,GAAGAGCAUCGGAACCAGATT against STK10,inactive: 0.0138
4,UGACGGUCAUCUAUACCUUTT against OPN4,inactive: 0.167
5,GGCAUAGCUUUCCUCUAUATT against ERCC6L,inactive: -0.0229
6,AGAUGUAUGUUCACACCAATT against IRX4,inactive: 0.0613
7,CGUGCACAGAUAUUACGCATT against FIGNL1,inactive: -0.408
8,GAUGAUUACCAGGAACGAATT against CAPRIN1,active: 1.36
9,CAGUUCAAGUGACAGCGAATT against AFF1,inactive: -0.0394
10,CGAUGAACGAGUACAUUGATT against GRIA2,active: -1.02
11,CCAUGGAAAUCCGCACUUUTT against MAN2B1,inactive: -0.246
12,GGACUUUGAGAAAAGCCGATT against HOOK2,inactive: 0.0914
13,CUAGAACUGUGAAGCAUAUTT against MMP1,inactive: 0.205
14,GACCGAAAAUGUAUUAGAATT against USP45,inactive: -0.203
15,CAUCAACGGAGGCUAUGAATT against ATP13A5,inactive: 0.241
16,CCGGAAAUCUGAACGGGAATT against ACACA,inactive: 0.00665
17,UCUCCUCUGCAUGCACUUATT against PAFAH1B3,inactive: -0.381
18,CCACAAAAAGGGCAUGAUUTT against FPR2,inactive: -0.166
19,GUUUCAGCGUGAUUCCAAATT against MTMR14,inactive: 0.131
20,UGCCCGCUGUAGAUGAGAATT against APOC2,inactive: -0.0599
21,GCCUGUCAUCAUUGGUGUATT against RNF121,inactive: -0.53
22,GAUUGCGACUGGACUCAAATT against PXDN,inactive: 0.771
23,CUCUUGCAGAACAACAGAATT against ALG1,inactive: 0

row,Sequence,median seed-adjusted z-score
1,GAUCAGAAUUGAGGUCUUUTT against CASP8,inactive: 0.413
2,CAUCCUGUCAGUUUCGAAATT against TRAF5,inactive: 0.598
3,UGCUGACCUCGUUACCUUUTT against UCP3,active: 1.23
4,GGUAAUGCUUUAUUCCAAATT against ZNF677,inactive: -0.441
5,GCUACUACCGAAUGGAAAATT against NPHS2,inactive: -0.857
6,GGAUGUUCCAAAUCACGGATT against MBTD1,inactive: 0.0649
7,CGUUGUCACUUGCAAUGCUTT against ECHDC3,inactive: 0.378
8,CCUUGUUAUUGAGAAUGAATT against LPA,inactive: -0.321
9,GAGUAUCUUUUCUUGCUUATT against EFHA1,inactive: 0.0629
10,CUGUUGGUAUUGGACUAUATT against EDNRB,inactive: 0.119
11,CAACAGUACUUACCGAUGUTT against ALDH3A2,inactive: -0.0751
12,CAACAGUCAUCAACCACUATT against INHBA,inactive: 0.361
13,CCAGGACUAUUUCCGCAAATT against CACNA1F,inactive: 0.22
14,CCCAAAUACUGUUUCCCAATT against ACTR1B,inactive: -0.18
15,AAUUCUACGAGGAAACGAATT against ASMTL,inactive: -0.0375
16,GCUCAUCGAUGAGUACCAUTT against TUBG1,inactive: 0.618
17,CCGUGAUUCACUUAGAUCATT against PCM1,inactive: -0.00218
18,CAUAAGAACCUGUUAGCUATT against RFWD2,inactive: 0.662
19,CCACUUUAAUAAACGUGCUTT against TIMM10,inactive: 0.0738
20,CCAACAAGGUAGACCCAUUTT against PSMC5,active: -1.06
21,GCAAUGCGUUCUUUCUAAATT against SIGLEC11,inactive: -0.395
22,GUCUUGACCUUGAACGCAATT against VIM,inactive: 0.431
23,GCUGGUUUCUAGCCUGAGATT against PEX12,inactive: -0.129
